The data set in a line: general procedure: peptide synthesis; HMPB resin (C-terminal acids); PAL resin (C-terminal amides); BOP-Cl, BOP, DCC or EDCI/HOBt (solution phase); DIPCDI/HOBt (solid phase); PyAOP. To be noted: All free lysines are TFA salts.

Some peptides are written in HELM: one residue between dots, names in brackets for other building blocks, links after the first $.

“Ac-EK(2Cl-Cbz)LVFF-NH2 /[MeLeu(3-OH)^1, (D)MeAla^4,6, Lys^7 ]CsA conjugate”: the conjugation yield (conjugation step) came out at 40%. Consider “Acetonide-MeLeu(3-OH)-Abu-(d)MeSer(OBn)-MeLeu-Val-MeLeu-Lys(2Cl-Cbz)-OBn”, for which the step yield (coupling step, run 1) was 70% and the step yield (coupling step, run 2) was 51-70%.

With “Boc-(D))MeSer(OBn)-MeLeu-Val-MeLeu-Lys(2 Cl-Cbz)-OBn”, the step yield (coupling step) came out at 71%. For “Boc-(D)MeSer(OTBS)-MeLeu-Val-MeLeu-Lys(2Cl-Cbz)-OBn”, the step yield came out at 65% (coupling step, run 1) and 58% (coupling step, run 2).

For the substance “Boc-Abu-(D)MeSer(OBn)-MeLeu-Val-MeLeu-Lys(2Cl-Cbz)-OBn”, the step yield by setting is: (coupling step, run 1) 68%; (coupling step, run 2) 69%. As to Boc-MeLeu-Val-MeLeu-Lys(2Cl-Cbz)-OBn, the step yield (coupling step) is recorded as 69%. Turning to “Fmoc-(D)Ala-MeLeu-MeLeu MeVal-MeLeu(3-OH)-Abu-(D)MeSer(OBn)-MeLeu-Val-MeLeu-Lys(2Cl-Cbz)-OBn”, the step yield reads like this: (coupling step, run 1) 53%; (coupling step, run 2) 33-53%.

For the substance “Fmoc-EK(2Cl-Cbz)LVFF-NH2 /[MeLeu(3OH)^1, (D)MeAla^4,6, , Lys^7 ]CsA conjugate”, where the note is “conjugation step”, the conjugation yield is 37%.

For the substance “Fmoc-K(2Cl-Cbz)LVIFF/[MeLeu (3-OH)^1, DMcAla^4,6, Lys^7 ]CsA conjugate”, under “conjugation step”, the conjugation yield came out at 65%. “H-MeLeu(3-OH)-Abu-Sar-MeAla-Val-McAla-Lys(2Cl-Cbz)-Obn”: under “late stage modification step”, the step yield is recorded as 84%.

As to “PEPTIDE1{[Fmoc].[Lys(Alloc)].L.V.F.F.K.[am]}|CHEM1{[FKBPi10-6]}$PEPTIDE1,CHEM1,7:R3-1:R2$$$V2.0”, the conjugation yield (conjugation step) is 13%. The same measure, in the same setting: then “PEPTIDE1{[PAc].K.L.V.F.F.[am]}|CHEM1{[FKBP-O(CH2)5CO]}$PEPTIDE1,CHEM1,2:R3-1:R2$$$V2.0”, with 43%.

On to “PEPTIDE1{[PAc].[Lys(Alloc)].L.V.F.F.K.[am]}|CHEM1{[FKBP-OCH2CO]}$PEPTIDE1,CHEM1,7:R3-1:R2$$$V2.0”, for which the conjugation yield (conjugation step) amounted to 20%. Regarding “PEPTIDE1{[ac].Q.[Lys(2Cl-Cbz)].L.V.F.F}$$$$V2.0”, for the setting “conjugation step”, the outcome was “no product isolated”. On to acetylcyclosporin A, for which the step yield (late stage modification step) was 65%.
